# Measured values taken from paper PMC9958537.
# Amino acid sequences for entries named in this document (tags omitted).
# UniProt A1KFR2: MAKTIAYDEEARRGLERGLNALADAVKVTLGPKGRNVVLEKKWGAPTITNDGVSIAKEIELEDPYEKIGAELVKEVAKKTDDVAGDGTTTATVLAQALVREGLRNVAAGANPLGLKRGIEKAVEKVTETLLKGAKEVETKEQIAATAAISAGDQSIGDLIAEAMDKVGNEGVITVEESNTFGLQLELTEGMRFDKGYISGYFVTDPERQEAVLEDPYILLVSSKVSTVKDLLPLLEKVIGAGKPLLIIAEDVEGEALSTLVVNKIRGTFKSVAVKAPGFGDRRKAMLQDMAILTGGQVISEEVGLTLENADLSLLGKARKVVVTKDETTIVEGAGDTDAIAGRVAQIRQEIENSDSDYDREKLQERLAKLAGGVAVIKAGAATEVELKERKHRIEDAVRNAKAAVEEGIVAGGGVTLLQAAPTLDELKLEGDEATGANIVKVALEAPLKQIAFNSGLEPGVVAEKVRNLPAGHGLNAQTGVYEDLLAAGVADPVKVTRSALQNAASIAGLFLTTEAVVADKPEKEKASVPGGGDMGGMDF
# UniProt A1KPA8: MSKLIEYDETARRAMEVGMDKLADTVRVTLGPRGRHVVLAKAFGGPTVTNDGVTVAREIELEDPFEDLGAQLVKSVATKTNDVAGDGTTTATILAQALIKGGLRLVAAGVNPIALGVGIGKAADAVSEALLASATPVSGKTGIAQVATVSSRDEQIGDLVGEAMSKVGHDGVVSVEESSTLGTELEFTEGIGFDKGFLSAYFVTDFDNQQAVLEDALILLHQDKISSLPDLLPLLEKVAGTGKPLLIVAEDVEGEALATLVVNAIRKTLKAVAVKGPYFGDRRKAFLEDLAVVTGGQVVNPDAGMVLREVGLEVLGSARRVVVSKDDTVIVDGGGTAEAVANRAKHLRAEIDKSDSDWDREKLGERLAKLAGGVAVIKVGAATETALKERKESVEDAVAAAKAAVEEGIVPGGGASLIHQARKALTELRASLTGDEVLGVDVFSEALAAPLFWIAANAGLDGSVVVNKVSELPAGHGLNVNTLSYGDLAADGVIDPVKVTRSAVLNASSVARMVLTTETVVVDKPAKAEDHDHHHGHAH
# UniProt P0A4W7: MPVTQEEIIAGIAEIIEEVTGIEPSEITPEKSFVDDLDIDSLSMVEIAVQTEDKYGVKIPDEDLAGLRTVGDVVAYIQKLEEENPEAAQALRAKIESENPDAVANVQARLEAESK
# UniProt A1KGG5: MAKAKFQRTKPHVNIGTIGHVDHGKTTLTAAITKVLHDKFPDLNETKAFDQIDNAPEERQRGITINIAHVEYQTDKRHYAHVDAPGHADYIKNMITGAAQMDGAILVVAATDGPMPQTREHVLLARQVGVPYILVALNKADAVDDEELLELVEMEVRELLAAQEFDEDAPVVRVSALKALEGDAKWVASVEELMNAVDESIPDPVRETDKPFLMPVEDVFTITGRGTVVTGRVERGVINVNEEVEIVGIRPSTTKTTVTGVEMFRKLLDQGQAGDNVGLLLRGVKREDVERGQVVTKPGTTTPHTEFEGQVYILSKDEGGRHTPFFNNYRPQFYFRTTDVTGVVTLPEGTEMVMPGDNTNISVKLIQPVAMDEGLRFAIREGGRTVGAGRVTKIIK
# These are yes or no findings as the source states them, for the method shown. Binding seen in cells or lysates may run through a third protein. A yes stands for co-enrichment or nearness to the bait. Other partners may have been found. For some assays here: Sequences can lack the tags named with a protein.
# Key:
# [1] = target: T1, His-tagged plectasin NZX peptide (6×His-TEV-NZX) (Pseudoplectania nigrella); assay: affinity purification with mass spectrometry; only the target purified
# T1 sequence: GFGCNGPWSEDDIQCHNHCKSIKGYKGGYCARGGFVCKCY
# [2] = target: T2, Biotin-labelled plectasin NZX peptide (Pseudoplectania nigrella); assay: as above
# T2 sequence (chain, biotin at the C-terminal): T1 sequence
Substance,binding [1],binding [2]
60 kDa chaperonin 2 (from UniProt A1KFR2 1-540),binds,binds
60 kDa chaperonin 1 (from UniProt A1KPA8 1-539),binds,binds
meromycolate extension acyl carrier protein (AcpM) (from UniProt P0A4W7 1-115),binds,binds
elongation factor Tu (from UniProt A1KGG5 1-396),binds,binds
